Some entries share one result that the patent states for a list of compounds.
The compounds below were run on Laodelphax striatellus (assay: Insecticidal test on Laodelphax striatellus (rice seedling dip)). Settings: 500 ppm, rice seedlings dipped 30 seconds, 3rd-instar larvae, 8 days after inoculation.
Format: in vivo
Source text: Insecticidal Test on Laodelphax striatellus
The compounds represented by the general formula (1) of the present invention or salts thereof were separately dispersed in water and diluted to 500 ppm. Rice plant seedlings (variety: Nihonbare) were dipped in the agrochemical dispersions for 30 seconds. After air-dried, each seedling was put into a separate glass test tube and inoculated with ten 3rd-instar larvae of Laodelphax striatellus, and then the glass test tubes were capped with cotton plugs. At 8 days after the inoculation, the numbers of surviving larvae and dead larvae were counted, the corrected mortality rate was calculated according to the formula shown below, and the insecticidal efficacy was evaluated according to the criteria shown below.
Corrected mortality rate (%)=100×(Survival rate in a non-treatment plot−Survival rate in a treatment plot)/Survival rate in a non-treatment plot [Math. 2]
A: the corrected mortality rate is 100%. B: the corrected mortality rate is 90 to 99%. C: the corrected mortality rate is 80 to 89%. D: the corrected mortality rate is 50 to 79%.
For `CCS(=O)(=O)n1c(-c2nc3cc(C(F)(F)C(F)(F)F)nnc3n2C)cc2cc(Br)c(Cl)cc21` [Compound 1-66], the “insecticidal efficacy (corrected mortality rate) on Laodelphax striatellus” value was “A (the corrected mortality rate is 100%)”.

These compounds were tested on Myzus persicae (assay: Test for control efficacy on Myzus persicae (foliar application, potted Chinese cabbage)). Settings: 500 ppm, foliar application to potted Chinese cabbage, 6 days after application.
Format: in vivo
For `CCS(=O)(=O)n1c(-c2nc3cc(C(F)(F)F)cnc3n2C)cc2ccccc21` [Compound 2-1], the “control efficacy (control rate) on Myzus persicae” value (from here on “control efficacy (control rate)”) was “A (the control rate is 100%)”. `CCS(=O)(=O)n1c(-c2nc3cc(C(F)(F)F)cnc3n2C)cc2cc(Br)ccc21` [Compound 2-64] was tested, and the “control efficacy (control rate)” value was “A (the control rate is 100%)”. With `CCS(=O)(=O)n1c(-c2nc3cc(C(F)(F)C(F)(F)F)nnc3n2C)cc2cc(Cl)ccc21` [Compound 1-36] the “control efficacy (control rate)” value was “A (the control rate is 100%)”. For `CCS(=O)(=O)n1c(-c2nc3cc(C(F)(F)F)cnc3n2C)cc2ccc(C(F)(F)F)cc21` [Compound 2-10], the “control efficacy (control rate)” value was “A (the control rate is 100%)”. With `CCS(=O)(=O)n1c(-c2nc3cc(C(F)(F)F)cnc3n2C)c(Cl)c2cc(Br)ccc21` [Compound 8-18] the “control efficacy (control rate)” value was “A (the control rate is 100%)”. `CCS(=O)(=O)n1c(-c2nc3cc(C(F)(F)F)cnc3n2C)cc2ccc(Cl)cc21` [Compound 2-3] was tested, and the “control efficacy (control rate)” value was “A (the control rate is 100%)”. `CCOc1ccc2cc(-c3nc4cc(C(F)(F)F)cnc4n3C)n(S(=O)(=O)CC)c2c1` [Compound 2-66] was tested, and the “control efficacy (control rate)” value was “A (the control rate is 100%)”. For `CCS(=O)(=O)n1c(-c2nc3cc(C(F)(F)F)cnc3n2C)cc2cc(I)c(Cl)cc21` [Compound 2-67], the “control efficacy (control rate)” value was “A (the control rate is 100%)”. For `CCS(=O)(=O)n1c(-c2nc3cc(C(F)(F)F)cnc3n2C)cc2ccc(Br)cc21` [Compound 2-31], the “control efficacy (control rate)” value was “A (the control rate is 100%)”. For `CCS(=O)(=O)n1c(-c2nc3cc(C(F)(F)F)cnc3n2C)nc2ccc(Br)cc21` [Compound 6-2], the “control efficacy (control rate)” value was “A (the control rate is 100%)”. With `CCS(=O)(=O)n1c(-c2nc3cc(C(F)(F)C(F)(F)F)nnc3n2C)cc2ccc(Br)cc21` [Compound 1-63] the “control efficacy (control rate)” value was “A (the control rate is 100%)”. For `CCS(=O)(=O)n1c(-c2nc3cc(C(F)(F)F)nnc3n2C)cc2ccccc21` [Compound 1-1], the “control efficacy (control rate)” value was “A (the control rate is 100%)”. For `CCS(=O)(=O)n1c(-c2nc3cc(C(F)(F)F)cnc3n2C)c(Cl)c2c(Cl)cccc21` [Compound 8-20], the “control efficacy (control rate)” value was “A (the control rate is 100%)”. With `CCS(=O)(=O)n1c(-c2nc3cc(C(F)(F)F)cnc3n2C)cc2ncc(C(F)(F)F)cc21` [Compound 7-1] the “control efficacy (control rate)” value was “A (the control rate is 100%)”. For `CCS(=O)(=O)n1c(-c2nc3cc(C(F)(F)C(F)(F)F)nnc3n2C)cc2ccc(Cl)cc21` [Compound 1-35], the “control efficacy (control rate)” value was “A (the control rate is 100%)”. With `CCS(=O)(=O)n1c(-c2nc3cc(C(F)(F)F)cnc3n2C)nc2ccccc21` [Compound 6-1] the “control efficacy (control rate)” value was “A (the control rate is 100%)”. For `CCS(=O)(=O)n1c(-c2nc3cc(C(F)(F)F)cnc3n2C)cc2c(Cl)cccc21` [Compound 2-5], the “control efficacy (control rate)” value was “A (the control rate is 100%)”. In the case of `CCS(=O)(=O)n1c(-c2nc3cc(C(F)(F)F)cnc3n2C)nc2cc(Br)ccc21` [Compound 6-3], the “control efficacy (control rate)” value is reported as “A (the control rate is 100%)”. For `CCS(=O)(=O)n1c(-c2nc3cc(C(F)(F)C(F)(F)F)nnc3n2C)cc2cc(C(F)(F)F)ccc21` [Compound 1-43], the “control efficacy (control rate)” value was “A (the control rate is 100%)”. In the case of `CCS(=O)(=O)n1c(-c2nc3cc(C(F)(F)F)cnc3n2C)cc2cc(OC(F)(F)F)ccc21` [Compound 2-65], the “control efficacy (control rate)” value is reported as “A (the control rate is 100%)”.

These compounds were tested on Plutella xylostella (assay: Insecticidal test on Plutella xylostella (dip of Chinese cabbage seedlings with laid eggs)). Settings: 500 ppm, seedlings with laid eggs dipped about 30 seconds, 25° C., 6 days after dip treatment.
Format: in vivo
Source text: Insecticidal Test on Plutella xylostella
Adults of Plutella xylostella were released onto Chinese cabbage seedlings and allowed to lay eggs thereon. At 2 days after the release of the adults, the Chinese cabbage seedlings with laid eggs were dipped for about 30 seconds in agrochemical formulations diluted to 500 ppm, each of which contained a different compound represented by the general formula (1) of the present invention as an active ingredient. After air-dried, the seedlings were kept in a thermostatic chamber at 25° C. At 6 days after the dip treatment, the number of hatched larvae per plot was counted, the mortality rate was calculated according to the formula shown below, and the insecticidal efficacy was evaluated according to the criteria of Test Example 2. This test was conducted in triplicate using 10 adults of Plutella xylostella per plot.
Corrected mortality rate (%)=100×(Number of hatched larvae in a non-treatment plot−Number of hatched larvae in a treatment plot)/Number of hatched larvae in a non-treatment plot [Math. 3]
With `CCS(=O)(=O)n1c(-c2nc3cc(C(F)(F)F)cnc3n2C)c(Cl)c2cc(Cl)c(OC)cc21` [Compound 8-22] the “insecticidal efficacy (corrected mortality rate) on Plutella xylostella” value (“insecticidal efficacy … on Plutella xylostella” for short) was “A (the corrected mortality rate is 100%)”. For `CCS(=O)(=O)n1c(-c2nc3cc(SC(F)(F)F)ccc3o2)cc2cc(C(F)(F)F)ccc21` [Compound 3-11], the “insecticidal efficacy … on Plutella xylostella” value was “A (the corrected mortality rate is 100%)”. In the case of `CCS(=O)(=O)n1c(-c2nc3cc(SC(F)(F)F)ccc3o2)cc2cc(Cl)ccc21` [Compound 3-4], the “insecticidal efficacy … on Plutella xylostella” value is reported as “A (the corrected mortality rate is 100%)”. `CCS(=O)(=O)n1c(-c2nc3cc(C(F)(F)C(F)(F)F)nnc3n2C)cc2cc(Br)c(Cl)cc21` [Compound 1-66] was tested, and the “insecticidal efficacy … on Plutella xylostella” value was “A (the corrected mortality rate is 100%)”. For `CCS(=O)(=O)n1c(-c2nc3cc(C(F)(F)F)cnc3n2C)c(Br)c2cc(Br)c(Cl)cc21` [Compound 8-19], the “insecticidal efficacy … on Plutella xylostella” value was “A (the corrected mortality rate is 100%)”. For `CCS(=O)(=O)n1c(-c2nc3cc(C(F)(F)F)cnc3n2C)c(Cl)c2cc(OC)c(Cl)cc21` [Compound 8-21], the “insecticidal efficacy … on Plutella xylostella” value was “A (the corrected mortality rate is 100%)”. With `CCS(=O)(=O)n1c(-c2nc3cc(C(F)(F)F)cnc3n2C)cc2cc(OC)ccc21` [Compound 2-15] the “insecticidal efficacy … on Plutella xylostella” value was “A (the corrected mortality rate is 100%)”.

— patent publication US20190174760A1, “N-ALKYLSULFONYL CONDENSED HETEROCYCLIC COMPOUND OR SALT THEREOF, INSECTICIDE COMPRISING THE COMPOUND, AND METHOD FOR USING THE INSECTICIDE” (Nihon Nohyaku Co., Ltd., priority 2016, published 2019)
